Laboratory results: article PMC4299599, “Quantification of cytosolic interactions identifies Ede1 oligomers as key organizers of endocytosis” (Molecular Systems Biology, 2014)
These are yes or no findings as the source states them, for the method shown.

Tests used:
Pan1 = target: T1, Pan1 (S. cerevisiae, UniProt P32521 1-1480); assay: condition: 1000 nM (only Kdeff-values < 1000 nM are shown); fluorescence cross-correlation spectroscopy (FCCS); in the cytoplasm of living yeast cells; first-named protein green (3myeGFP or 1myeGFP; eGFP for Don1), second red (3mCherry); self-interaction in diploid strains with one allele of each colour; apparent or effective KD (Kdeff) from single-cell measurements; only Kdeff values < 1000 nM are shown; values for self-interactions are upper limits
T1 construct: Pan1, S. cerevisiae; also called Pan1-1myeGFP; Pan1-3mCherry; source: chromosomally tagged at the endogenous locus, in the cytoplasm of living S. cerevisiae cells
T1 sequence (looked up): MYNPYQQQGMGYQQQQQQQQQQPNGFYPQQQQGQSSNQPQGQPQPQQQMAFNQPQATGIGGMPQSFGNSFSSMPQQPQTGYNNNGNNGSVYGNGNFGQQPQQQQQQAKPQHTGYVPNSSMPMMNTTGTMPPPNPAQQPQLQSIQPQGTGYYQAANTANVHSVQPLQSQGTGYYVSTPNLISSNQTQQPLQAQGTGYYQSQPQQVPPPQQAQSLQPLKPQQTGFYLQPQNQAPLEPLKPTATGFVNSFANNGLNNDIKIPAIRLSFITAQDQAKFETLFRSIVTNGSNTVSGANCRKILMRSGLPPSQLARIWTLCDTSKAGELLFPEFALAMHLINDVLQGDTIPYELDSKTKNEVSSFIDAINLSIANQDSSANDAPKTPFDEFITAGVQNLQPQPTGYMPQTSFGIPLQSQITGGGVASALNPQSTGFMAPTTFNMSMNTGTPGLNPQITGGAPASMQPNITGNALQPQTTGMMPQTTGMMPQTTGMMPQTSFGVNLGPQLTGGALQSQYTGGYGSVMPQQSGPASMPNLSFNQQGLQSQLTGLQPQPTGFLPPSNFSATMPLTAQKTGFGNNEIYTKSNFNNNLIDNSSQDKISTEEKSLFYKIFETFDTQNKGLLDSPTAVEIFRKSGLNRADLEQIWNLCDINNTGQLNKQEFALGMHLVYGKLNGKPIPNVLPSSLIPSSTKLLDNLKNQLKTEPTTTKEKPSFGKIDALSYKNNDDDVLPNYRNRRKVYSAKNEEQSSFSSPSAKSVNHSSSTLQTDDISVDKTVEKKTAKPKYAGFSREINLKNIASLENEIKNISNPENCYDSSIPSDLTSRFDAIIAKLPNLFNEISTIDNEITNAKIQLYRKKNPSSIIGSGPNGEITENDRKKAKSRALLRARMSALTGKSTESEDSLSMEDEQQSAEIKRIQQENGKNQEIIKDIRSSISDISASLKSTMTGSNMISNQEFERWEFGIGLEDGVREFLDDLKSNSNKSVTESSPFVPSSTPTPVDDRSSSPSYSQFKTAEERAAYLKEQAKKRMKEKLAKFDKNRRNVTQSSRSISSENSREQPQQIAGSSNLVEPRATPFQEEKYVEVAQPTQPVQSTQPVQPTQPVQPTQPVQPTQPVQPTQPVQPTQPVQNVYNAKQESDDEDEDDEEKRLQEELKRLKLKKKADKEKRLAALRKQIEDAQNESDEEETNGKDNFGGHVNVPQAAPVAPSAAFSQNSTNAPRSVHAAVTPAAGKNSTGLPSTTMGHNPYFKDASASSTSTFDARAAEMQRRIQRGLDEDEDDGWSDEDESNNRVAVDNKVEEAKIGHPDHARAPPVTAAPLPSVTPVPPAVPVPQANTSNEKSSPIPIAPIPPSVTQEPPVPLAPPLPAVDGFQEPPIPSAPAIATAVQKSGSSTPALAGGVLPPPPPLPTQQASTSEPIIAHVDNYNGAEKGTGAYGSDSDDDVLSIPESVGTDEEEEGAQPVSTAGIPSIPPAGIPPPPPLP

Ede1 (S. cerevisiae) = target: T2, Ede1 (S. cerevisiae) (UniProt P34216); assay: as above
T2 sequence: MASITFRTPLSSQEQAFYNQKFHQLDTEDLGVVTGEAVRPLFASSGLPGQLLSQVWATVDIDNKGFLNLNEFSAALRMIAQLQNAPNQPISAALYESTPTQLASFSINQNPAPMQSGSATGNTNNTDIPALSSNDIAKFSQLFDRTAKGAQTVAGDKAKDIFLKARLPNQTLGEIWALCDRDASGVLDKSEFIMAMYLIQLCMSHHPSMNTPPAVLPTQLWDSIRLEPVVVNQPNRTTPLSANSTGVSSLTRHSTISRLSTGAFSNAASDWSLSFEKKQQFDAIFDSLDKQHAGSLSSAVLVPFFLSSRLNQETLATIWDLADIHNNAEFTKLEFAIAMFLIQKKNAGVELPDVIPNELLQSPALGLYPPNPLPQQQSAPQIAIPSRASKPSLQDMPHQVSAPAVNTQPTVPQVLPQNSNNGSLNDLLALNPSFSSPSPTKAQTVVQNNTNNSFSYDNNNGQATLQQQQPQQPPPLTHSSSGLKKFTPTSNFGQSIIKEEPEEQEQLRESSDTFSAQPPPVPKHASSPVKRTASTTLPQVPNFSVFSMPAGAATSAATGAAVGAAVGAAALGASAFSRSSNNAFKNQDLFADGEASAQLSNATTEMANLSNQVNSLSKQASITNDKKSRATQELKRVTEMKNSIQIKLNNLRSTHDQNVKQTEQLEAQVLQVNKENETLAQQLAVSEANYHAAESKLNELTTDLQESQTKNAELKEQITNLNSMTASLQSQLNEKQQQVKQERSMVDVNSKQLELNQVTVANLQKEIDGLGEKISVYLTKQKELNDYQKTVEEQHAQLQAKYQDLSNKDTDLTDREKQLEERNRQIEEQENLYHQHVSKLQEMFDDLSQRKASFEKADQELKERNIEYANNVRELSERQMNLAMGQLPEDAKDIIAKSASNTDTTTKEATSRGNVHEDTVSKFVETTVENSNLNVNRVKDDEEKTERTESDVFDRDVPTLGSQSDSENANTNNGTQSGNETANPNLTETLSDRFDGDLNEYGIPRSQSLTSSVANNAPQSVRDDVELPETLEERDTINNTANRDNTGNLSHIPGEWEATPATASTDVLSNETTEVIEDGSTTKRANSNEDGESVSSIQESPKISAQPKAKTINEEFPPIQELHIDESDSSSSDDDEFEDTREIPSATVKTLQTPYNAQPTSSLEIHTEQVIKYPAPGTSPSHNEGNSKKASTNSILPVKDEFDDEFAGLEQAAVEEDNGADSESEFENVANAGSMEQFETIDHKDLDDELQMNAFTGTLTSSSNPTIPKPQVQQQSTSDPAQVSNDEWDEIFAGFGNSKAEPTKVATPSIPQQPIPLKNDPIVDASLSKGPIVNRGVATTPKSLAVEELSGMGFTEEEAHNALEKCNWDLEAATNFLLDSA

binding (Pan1): no binding
binding (Ede1 (S. cerevisiae)): no binding
B1: Yap1802 (protein, UniProt P53309 1-568)
chain: MSSLYTKLVKGATKIKMAPPKQKYVDPILSGTSSARGLQEITHALDIRLSDTAWTIVYKALIVLHLMIQQGEKDVTLRHYSHNLDVFQLRKISHTTKWSSNDMRALQRYDEYLKTRCEEYGRLGMDHLRDNYSSLKLGSKNQLSMDEELDHVESLEIQINALIRNKYSVSDLENHLLLYAFQLLVQDLLGLYNALNEGVITLLESFFELSIEHAKRTLDLYKDFVDMTEYVVRYLKIGKAVGLKIPVIKHITTKLINSLEEHLREETKRQRGEPSEPQQDRKPSTAISSTSSHNNNSNDKNKSIAQKKLEQIREQKRLLEQQLQNQQLLISPTVPQDAYNPFGSQQQDLNNDTFSFEPTQPQMTAQVPQPTANPFLIPQQQQQALQLTSASTMPQPSEIQITPNLNNQQTGMYASNLQYTPNFTGSGFGGYTTTENNAIMTGTLDPTKTGSNNPFSLENIAREQQQQNFQNSPNPFTLQQAQTTPILAHSQTGNPFQAQNVVTSPMGTYMTNPVAGQLQYASTGAQQQPQMMQGQQTGYVMVPTAFVPINQQQQQQQHQQENPNLIDI
